In assay [1] the target is T1, BirA*-Flag-JUN WT (293T), P05412.
T1 chain: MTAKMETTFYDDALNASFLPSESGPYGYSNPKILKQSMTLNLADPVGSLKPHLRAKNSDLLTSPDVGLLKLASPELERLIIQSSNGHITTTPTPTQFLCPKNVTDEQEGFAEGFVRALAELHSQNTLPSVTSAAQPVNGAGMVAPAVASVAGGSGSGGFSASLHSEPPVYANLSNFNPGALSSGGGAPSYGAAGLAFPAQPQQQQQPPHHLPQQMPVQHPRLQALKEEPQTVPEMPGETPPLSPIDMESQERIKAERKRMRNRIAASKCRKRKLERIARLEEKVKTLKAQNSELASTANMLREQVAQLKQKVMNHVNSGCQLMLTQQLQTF
The experiment in a line: co-IP; 293T cells transiently transfected with BirA* fusion protein, HA-JUN and FOS-V5 (enforced FOS expression); Flag immunoprecipitation, precipitates assayed for HA-JUN and FOS-V5. Particulars: remark: other sources report otherwise.

The target is the same in assay [2]. Briefly: co-IP; 293T cells transfected with BirA*-Flag JUN alleles and HA-JUN WT; lysed in RIPA buffer 48 h after transfection; Anti-Flag M2 agarose, 4 °C, 3 h; eluted with Flag peptide; immunoblot for HA-JUN WT. Particulars: remark: other sources report otherwise. (In general: Immunoblotting shows a protein as a band on a membrane.)

These are yes or no findings as the source states them, for the method shown. In cells and extracts the contact can be indirect. Some entries that bind do so weakly or less than the wild type. Tags and fused reporters may be left off the sequences shown.

These results are taken from PMC11480203.

B1: HA-JUN WT, P05412 1-331 (protein)
chain: MTAKMETTFYDDALNASFLPSESGPYGYSNPKILKQSMTLNLADPVGSLKPHLRAKNSDLLTSPDVGLLKLASPELERLIIQSSNGHITTTPTPTQFLCPKNVTDEQEGFAEGFVRALAELHSQNTLPSVTSAAQPVNGAGMVAPAVASVAGGSGSGGFSASLHSEPPVYANLSNFNPGALSSGGGAPSYGAAGLAFPAQPQQQQQPPHHLPQQMPVQHPRLQALKEEPQTVPEMPGETPPLSPIDMESQERIKAERKRMRNRIAASKCRKRKLERIARLEEKVKTLKAQNSELASTANMLREQVAQLKQKVMNHVNSGCQLMLTQQLQTF
As to B1, the binding entry in assay [1] and in assay [2] was “binds” in each case.
